Measurements taken from US20180073027.

Sequences of proteins named here, by UniProt entry; tags and fusion partners are left off. Residues count along the entry.
UniProt P10721, 26-976: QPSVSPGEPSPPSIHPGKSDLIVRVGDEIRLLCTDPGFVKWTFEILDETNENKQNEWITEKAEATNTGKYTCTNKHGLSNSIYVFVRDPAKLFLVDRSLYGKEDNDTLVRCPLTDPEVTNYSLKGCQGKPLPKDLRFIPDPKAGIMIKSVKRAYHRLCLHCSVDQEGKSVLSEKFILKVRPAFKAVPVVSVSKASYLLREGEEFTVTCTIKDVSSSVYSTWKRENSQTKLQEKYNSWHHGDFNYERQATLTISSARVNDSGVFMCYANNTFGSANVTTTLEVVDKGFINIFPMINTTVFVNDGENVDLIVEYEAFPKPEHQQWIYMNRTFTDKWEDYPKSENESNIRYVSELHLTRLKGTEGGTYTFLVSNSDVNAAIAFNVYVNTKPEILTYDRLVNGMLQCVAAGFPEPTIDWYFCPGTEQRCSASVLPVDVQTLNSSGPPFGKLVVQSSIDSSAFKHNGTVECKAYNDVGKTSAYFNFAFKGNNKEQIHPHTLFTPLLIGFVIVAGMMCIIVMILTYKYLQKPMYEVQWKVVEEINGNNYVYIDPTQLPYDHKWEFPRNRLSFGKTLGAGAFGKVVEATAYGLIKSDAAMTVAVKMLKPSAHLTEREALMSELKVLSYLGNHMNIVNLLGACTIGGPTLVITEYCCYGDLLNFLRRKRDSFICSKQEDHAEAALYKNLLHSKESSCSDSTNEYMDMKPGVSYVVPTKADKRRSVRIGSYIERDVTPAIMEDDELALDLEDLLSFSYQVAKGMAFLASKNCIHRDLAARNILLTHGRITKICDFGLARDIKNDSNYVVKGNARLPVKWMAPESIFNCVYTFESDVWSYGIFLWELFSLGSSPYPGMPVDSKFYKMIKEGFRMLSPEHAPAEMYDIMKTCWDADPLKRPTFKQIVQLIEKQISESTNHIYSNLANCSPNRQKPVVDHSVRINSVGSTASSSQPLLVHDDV

Columns and labels:
[1] = target: CD117 (KIT, c-Kit) (UniProt P10721); test: flow cytometry; settings: HEL cells; only range for truncated forms given in text; protein on the cell surface; label: Cy3; single-stranded DNA; variant of CD117 aptamer #1F (full length)
[2] = target: CD117 (KIT, c-Kit) (UniProt P10721); test: pull-down; settings: 100 nM aptamer, streptavidin beads, anti-CD117 western blot; CD117 (P10721) confirmed by mass spectrometry; protein in an extract; protein details: endogenous, HEL whole-cell lysate; label: biotin; single-stranded DNA; variant of CD117 aptamer #1F (full length)

Sequence	binding result [1]	binding result [2]
GAGGCATACCAGCTTATTCAAGGGGCCGGGGCAAGGGGGGGGTACCGTGGTAGGAC [#1-3' Del]	binds more weakly	
GAGGCATACCAGCTTATTCAAGGGGCCGGGGCAAGGGGGGGGTACCGTGGTAGGACATAGTAAGTGCAATCTGCGAA [CD117 aptamer #1F, biotin-labeled]		binds
GGGGCCGGGGCAAGGGGGGGGTACCGTGGTAGGAC [#1-35 Core]	binds more weakly	
GGGGCCGGGGCAAGGGGGGGGTACCGTGGTAGGACATAGTAAGTGCAATCTGCGAA [#1-5' Del]	binds more weakly	

For at least one entry, the source does not settle the construct or the ends of the probe. Results from cells or extracts need not show a direct contact. For some of these results: Weaker means in comparison with the reference protein, sequence or condition of that experiment.
